Our source for the binding values is publication PMC8110583.

Amino acid sequences for entries named in this document (tags omitted).
UniProt P09874: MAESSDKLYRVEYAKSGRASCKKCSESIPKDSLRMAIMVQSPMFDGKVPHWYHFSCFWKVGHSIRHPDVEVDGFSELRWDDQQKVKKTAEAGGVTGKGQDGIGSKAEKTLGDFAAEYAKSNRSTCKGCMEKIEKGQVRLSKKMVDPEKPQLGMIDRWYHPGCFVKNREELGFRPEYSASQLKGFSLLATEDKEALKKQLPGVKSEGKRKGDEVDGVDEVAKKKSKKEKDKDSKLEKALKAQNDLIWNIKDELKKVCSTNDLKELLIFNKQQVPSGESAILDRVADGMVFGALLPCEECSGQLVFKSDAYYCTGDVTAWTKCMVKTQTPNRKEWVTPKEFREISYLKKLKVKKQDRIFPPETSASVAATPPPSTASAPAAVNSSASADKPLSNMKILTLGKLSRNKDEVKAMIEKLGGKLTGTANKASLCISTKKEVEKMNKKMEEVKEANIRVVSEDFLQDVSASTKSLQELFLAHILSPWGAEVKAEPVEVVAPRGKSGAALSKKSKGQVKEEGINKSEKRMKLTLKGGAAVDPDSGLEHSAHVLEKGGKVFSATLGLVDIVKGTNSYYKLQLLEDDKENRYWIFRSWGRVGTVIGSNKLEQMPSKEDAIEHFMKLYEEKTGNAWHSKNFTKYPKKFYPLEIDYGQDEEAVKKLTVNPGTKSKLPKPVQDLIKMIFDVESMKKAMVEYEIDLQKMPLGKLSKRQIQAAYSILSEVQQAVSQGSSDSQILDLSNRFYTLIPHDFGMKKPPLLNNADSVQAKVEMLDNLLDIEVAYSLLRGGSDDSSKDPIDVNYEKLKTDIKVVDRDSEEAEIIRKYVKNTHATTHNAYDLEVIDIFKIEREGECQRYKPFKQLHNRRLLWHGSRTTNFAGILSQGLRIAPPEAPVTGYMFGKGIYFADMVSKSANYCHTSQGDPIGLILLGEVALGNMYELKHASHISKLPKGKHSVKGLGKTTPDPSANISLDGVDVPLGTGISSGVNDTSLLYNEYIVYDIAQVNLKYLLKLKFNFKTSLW
UniProt P38159: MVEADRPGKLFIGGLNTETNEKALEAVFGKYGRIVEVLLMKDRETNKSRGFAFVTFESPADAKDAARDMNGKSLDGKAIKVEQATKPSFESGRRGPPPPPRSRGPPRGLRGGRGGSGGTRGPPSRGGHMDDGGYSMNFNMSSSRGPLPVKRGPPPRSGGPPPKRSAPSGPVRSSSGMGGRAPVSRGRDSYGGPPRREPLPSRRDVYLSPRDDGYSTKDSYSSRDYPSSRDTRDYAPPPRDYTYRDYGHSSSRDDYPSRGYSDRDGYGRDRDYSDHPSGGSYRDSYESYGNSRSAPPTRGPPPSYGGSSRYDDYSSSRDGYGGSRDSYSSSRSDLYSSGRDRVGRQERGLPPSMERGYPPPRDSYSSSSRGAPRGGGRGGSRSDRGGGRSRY

No constants are given. Whether binding was seen depends on the method and setting. In cells and extracts the contact can be indirect. Some binding calls cover weakened binding; strength is not graded here.

The target in the test is TDP-43 (human (endogenous in GPiNs, G401, T47D, A375)) (UniProt Q13148). The experiment in a line: co-IP; biological replicates of the TDP-43 IP from GPiN lysate, western blots with interactor-specific antibodies. On the technique in general: Immunoblotting shows a protein as a band on a membrane.

Take PARP1 (from UniProt P09874 1-1014): the binding entry is reported as “binds”.
The entry for RBMX (from UniProt P38159 1-391) is “binds”.
